Reference: paper PMC12830989 (Nature Communications, 2025)

Columns and labels:
[1] = general procedure: Fmoc solid-phase peptide synthesis; Tentagel S RAM resin (loading 0.20-0.25 mmol/g); DIC/Oxyma (automated); HCTU/DiPEA (manual); settings: conjugation step
[2] = general procedure: Fmoc solid-phase peptide synthesis; RAM-Tentagel S; DIC/Oxyma (automated); HCTU/DiPEA (manual); settings: whole synthesis, scale 5 µmol

Row | Substance | conjugation yield [1] | isolated mass [2] | isolated yield [2]
1 | Ac-Lys(Man)-Lys(Man)-Lys(Man)-Lys(Man)-Lys(Man)-Lys(Man)-TEG-Asp-Glu-Val-Ser-Gly-Leu-Glu-Gln-Leu-Glu-Ser-Ile-Ile-Asn-Phe-Glu-Lys-Leu-Ala-Ala-Ala-Ala-Ala-Lys(sCy5)-NH2 (DEVSGLEQLESIINFEKLAAAAAK; six Lys(Man), TEG, sulfo-Cy5, C-amide; printed: Asp-Glu-Val-Ser-Gly-Leu-Glu-Gln-Leu-Glu-Ser-Ile-Ile-Asn-Phe-Glu-Lys-Leu-Ala-Ala-Ala-Ala-Ala-Lys) | 85% |  | 
2 | Ac-Lys(N3)-Gly-Lys(N3)-TEG-Asp-Glu-Val-Ser-Gly-Leu-Glu-Gln-Leu-Glu-Ser-Ile-Ile-Asn-Phe-Glu-Lys-Leu-Ala-Ala-Ala-Ala-Ala-Lys(sCy5)-NH2 |  | 1.24 mg | 6.6%
3 | ys(N3)-TEG-Asp-Glu-Val-Ser-Gly-Leu-Glu-Gln-Leu-Glu-Ser-Ile-Ile-Asn-Phe-Glu-Lys-Leu-Ala-Ala-Ala-Ala-Ala-Lys(sCy5)-NH2 |  | 1.60 mg | 7.4%
